According to paper doi:10.1101/2021.01.28.428700:
No constants are given. Whether binding was seen depends on the method and setting. For some assays here: In cells and extracts the contact can be indirect. Some entries that bind do so weakly or less than the wild type.

Sequences of proteins named here, by UniProt entry; tags and fusion partners are left off. A change or cut given only in a name is not applied to a line headed by its entry. A line that says so, or that is headed by a name, gives the form on record, which may keep a tag or linker. Residues count along the entry.
UniProt P29317: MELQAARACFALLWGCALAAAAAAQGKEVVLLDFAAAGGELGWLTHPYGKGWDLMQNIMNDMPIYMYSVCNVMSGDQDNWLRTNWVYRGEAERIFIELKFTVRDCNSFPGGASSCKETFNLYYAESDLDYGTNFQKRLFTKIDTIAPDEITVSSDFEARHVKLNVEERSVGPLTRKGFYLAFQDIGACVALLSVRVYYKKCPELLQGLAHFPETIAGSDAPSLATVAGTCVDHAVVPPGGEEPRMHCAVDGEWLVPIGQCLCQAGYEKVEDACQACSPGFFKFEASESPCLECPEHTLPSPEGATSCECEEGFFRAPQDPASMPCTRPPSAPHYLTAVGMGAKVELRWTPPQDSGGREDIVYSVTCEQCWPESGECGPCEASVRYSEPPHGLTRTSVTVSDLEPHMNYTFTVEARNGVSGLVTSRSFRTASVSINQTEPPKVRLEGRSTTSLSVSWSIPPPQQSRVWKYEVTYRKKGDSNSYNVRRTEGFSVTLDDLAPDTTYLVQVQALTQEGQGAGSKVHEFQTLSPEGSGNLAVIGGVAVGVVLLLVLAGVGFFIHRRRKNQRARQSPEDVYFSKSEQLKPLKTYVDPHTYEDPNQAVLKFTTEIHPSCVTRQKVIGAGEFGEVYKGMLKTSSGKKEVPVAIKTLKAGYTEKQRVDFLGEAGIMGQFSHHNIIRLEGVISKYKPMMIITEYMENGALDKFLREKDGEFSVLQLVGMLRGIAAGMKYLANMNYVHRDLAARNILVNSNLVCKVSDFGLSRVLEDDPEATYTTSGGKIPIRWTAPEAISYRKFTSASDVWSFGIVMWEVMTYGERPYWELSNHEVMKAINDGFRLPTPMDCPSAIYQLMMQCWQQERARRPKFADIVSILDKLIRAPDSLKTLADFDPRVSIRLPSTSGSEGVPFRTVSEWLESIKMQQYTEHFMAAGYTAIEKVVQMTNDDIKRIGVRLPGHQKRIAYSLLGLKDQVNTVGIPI
EphA2 expressed in HEK293 cells (pulldown with Ephexin4): residues 24-976 of P29317
EphA2 3E mutant (T898E/S899E/S901E), full length, labeled with mTurquoise or EYFP (P29317, form named): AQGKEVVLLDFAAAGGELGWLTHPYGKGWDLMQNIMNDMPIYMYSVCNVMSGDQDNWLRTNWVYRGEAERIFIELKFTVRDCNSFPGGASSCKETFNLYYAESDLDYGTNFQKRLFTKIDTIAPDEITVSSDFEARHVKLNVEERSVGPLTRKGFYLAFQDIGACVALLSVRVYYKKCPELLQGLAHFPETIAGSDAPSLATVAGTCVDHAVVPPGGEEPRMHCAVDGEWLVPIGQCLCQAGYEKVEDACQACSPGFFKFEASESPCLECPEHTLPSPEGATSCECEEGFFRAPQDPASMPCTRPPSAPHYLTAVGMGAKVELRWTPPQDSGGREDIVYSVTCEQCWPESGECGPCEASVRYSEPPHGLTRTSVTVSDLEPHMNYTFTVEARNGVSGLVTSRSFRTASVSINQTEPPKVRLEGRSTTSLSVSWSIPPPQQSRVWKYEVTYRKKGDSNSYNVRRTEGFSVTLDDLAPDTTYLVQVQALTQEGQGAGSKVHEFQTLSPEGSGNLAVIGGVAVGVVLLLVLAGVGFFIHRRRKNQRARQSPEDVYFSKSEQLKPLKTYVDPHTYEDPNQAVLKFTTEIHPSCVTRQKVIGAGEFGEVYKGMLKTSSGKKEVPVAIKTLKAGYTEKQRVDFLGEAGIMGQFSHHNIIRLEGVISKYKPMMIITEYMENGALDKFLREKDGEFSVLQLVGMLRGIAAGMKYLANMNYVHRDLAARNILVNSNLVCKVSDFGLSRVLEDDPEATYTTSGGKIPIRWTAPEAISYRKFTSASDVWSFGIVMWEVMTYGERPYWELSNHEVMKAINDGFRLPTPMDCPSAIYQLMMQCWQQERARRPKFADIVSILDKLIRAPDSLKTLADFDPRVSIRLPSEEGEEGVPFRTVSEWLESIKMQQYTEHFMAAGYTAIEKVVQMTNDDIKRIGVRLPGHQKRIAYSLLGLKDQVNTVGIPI
EphA2 5A mutant (S892A/S897A/T898A/S899A/S901A), full length, labeled with mTurquoise or EYFP (P29317, form named): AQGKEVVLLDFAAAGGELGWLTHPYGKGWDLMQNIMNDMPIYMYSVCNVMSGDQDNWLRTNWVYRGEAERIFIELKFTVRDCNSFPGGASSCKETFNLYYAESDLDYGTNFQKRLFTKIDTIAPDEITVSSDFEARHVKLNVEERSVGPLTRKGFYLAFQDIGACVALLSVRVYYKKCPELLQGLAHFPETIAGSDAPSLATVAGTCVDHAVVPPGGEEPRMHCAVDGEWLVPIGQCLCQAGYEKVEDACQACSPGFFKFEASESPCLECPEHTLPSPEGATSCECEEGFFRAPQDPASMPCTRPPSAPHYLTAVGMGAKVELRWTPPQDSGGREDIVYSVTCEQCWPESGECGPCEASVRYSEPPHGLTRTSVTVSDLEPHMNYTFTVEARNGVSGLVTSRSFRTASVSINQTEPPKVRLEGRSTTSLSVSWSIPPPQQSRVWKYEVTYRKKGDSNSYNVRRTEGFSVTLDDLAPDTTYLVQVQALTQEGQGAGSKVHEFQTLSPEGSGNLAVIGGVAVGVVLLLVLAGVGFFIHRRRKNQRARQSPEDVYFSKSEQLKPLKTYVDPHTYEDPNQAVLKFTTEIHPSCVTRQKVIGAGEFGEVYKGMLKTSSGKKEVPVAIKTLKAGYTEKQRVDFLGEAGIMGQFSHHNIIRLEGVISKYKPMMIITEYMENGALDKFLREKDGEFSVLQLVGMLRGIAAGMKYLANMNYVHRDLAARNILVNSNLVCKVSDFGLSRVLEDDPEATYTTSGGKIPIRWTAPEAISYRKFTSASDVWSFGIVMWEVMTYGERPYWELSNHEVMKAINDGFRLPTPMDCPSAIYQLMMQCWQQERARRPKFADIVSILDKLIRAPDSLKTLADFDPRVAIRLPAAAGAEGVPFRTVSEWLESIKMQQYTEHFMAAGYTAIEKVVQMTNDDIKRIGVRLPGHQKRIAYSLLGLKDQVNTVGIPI
EphA2 5E mutant (S892E/S897E/T898E/S899E/S901E), full length, labeled with mTurquoise or EYFP (P29317, form named): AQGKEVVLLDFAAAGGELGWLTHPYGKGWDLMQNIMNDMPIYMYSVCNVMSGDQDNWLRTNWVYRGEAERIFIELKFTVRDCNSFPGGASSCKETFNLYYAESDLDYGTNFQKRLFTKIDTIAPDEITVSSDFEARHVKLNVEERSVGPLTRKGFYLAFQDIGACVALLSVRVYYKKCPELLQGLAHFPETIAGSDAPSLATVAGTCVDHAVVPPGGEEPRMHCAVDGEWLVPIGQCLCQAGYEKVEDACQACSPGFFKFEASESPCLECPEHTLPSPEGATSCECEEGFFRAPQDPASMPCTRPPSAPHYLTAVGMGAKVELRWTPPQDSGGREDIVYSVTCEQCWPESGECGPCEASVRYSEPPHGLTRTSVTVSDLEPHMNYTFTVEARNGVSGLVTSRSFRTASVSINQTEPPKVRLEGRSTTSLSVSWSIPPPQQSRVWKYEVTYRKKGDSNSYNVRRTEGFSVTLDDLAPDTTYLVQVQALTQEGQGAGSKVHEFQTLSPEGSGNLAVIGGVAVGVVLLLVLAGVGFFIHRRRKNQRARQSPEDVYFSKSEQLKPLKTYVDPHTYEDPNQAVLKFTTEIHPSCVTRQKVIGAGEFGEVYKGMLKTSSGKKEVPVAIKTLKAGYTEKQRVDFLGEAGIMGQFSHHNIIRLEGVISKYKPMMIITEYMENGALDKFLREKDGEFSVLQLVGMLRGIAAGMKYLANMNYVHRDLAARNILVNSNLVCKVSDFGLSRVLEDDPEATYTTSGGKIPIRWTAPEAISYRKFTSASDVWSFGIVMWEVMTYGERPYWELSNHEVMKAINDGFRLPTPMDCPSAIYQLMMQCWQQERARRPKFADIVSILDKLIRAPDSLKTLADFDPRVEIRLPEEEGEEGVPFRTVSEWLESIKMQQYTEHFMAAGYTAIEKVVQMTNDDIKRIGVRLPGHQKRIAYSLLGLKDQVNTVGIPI
EphA2 ASAAA mutant (S892A/T898A/S899A/S901A), full length, labeled with mTurquoise or EYFP (P29317, form named): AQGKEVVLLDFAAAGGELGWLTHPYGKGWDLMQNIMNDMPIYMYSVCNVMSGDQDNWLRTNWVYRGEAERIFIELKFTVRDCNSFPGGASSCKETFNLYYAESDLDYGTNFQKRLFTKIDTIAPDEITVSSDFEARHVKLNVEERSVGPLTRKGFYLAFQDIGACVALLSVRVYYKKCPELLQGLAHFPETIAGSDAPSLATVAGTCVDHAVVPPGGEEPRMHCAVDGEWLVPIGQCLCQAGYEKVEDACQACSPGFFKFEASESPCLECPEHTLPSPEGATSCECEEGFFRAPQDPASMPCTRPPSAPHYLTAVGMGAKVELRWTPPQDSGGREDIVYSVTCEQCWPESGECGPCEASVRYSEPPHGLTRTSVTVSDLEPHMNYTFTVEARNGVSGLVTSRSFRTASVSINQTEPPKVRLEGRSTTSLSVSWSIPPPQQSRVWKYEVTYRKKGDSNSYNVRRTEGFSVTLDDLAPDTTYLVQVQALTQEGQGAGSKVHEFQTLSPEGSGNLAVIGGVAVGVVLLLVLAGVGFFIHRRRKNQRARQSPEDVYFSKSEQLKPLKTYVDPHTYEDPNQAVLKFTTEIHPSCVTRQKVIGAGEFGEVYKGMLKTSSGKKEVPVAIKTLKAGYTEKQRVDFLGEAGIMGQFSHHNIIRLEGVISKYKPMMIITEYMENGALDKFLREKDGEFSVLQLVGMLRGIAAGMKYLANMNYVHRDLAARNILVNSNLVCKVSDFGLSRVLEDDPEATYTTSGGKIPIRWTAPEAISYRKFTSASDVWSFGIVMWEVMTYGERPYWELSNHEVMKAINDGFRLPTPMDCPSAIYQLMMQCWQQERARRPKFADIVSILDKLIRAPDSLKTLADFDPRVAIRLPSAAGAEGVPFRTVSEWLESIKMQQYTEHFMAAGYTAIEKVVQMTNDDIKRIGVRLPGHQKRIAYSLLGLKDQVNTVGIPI
EphA2 S892A mutant, full length, labeled with mTurquoise or EYFP (P29317, form named): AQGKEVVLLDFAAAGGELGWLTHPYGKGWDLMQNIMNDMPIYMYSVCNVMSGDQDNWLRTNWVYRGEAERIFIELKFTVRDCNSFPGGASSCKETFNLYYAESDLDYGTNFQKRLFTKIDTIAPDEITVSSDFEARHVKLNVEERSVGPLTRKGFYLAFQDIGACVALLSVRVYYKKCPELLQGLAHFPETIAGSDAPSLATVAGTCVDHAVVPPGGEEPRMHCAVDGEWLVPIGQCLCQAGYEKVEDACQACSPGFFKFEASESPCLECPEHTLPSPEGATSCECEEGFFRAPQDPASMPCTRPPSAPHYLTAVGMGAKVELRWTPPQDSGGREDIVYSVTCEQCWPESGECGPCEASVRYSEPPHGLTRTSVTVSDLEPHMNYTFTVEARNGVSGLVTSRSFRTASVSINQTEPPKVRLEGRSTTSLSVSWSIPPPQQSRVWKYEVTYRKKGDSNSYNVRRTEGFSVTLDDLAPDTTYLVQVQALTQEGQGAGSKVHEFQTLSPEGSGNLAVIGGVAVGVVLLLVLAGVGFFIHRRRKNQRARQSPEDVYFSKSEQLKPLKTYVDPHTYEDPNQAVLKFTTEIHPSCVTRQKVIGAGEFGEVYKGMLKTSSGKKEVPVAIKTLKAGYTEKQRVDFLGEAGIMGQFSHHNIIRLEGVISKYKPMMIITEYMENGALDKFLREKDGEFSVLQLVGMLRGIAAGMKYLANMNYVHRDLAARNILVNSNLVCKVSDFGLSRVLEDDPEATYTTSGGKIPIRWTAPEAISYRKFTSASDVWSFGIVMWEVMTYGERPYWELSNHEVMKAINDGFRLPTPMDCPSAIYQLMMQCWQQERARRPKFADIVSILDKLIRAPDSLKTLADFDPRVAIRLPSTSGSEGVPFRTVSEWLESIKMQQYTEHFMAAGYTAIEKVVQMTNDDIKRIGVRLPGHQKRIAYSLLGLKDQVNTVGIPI

Columns and labels:
[1] = target: EphA2 3E mutant (T898E/S899E/S901E), full length, labeled with mTurquoise or EYFP (human) (UniProt P29317); test: FRET or BRET
[2] = target: EphA2 5A mutant (S892A/S897A/T898A/S899A/S901A), full length, labeled with mTurquoise or EYFP (human) (UniProt P29317); test: FRET or BRET
[3] = target: EphA2 5E mutant (S892E/S897E/T898E/S899E/S901E), full length, labeled with mTurquoise or EYFP (human) (UniProt P29317); test: FRET or BRET
[4] = target: EphA2 ASAAA mutant (S892A/T898A/S899A/S901A), full length, labeled with mTurquoise or EYFP (human) (UniProt P29317); test: FRET or BRET
[5] = target: EphA2 S892A mutant, full length, labeled with mTurquoise or EYFP (human) (UniProt P29317); test: FRET or BRET
[6] = target: EphA2 S892E mutant, full length, labeled with mTurquoise or EYFP (human) (UniProt P29317); test: FRET or BRET
[7] = target: EphA2 S897A mutant, full length, labeled with mTurquoise or EYFP (human) (UniProt P29317); test: FRET or BRET
[8] = target: EphA2 S897E mutant, full length, labeled with mTurquoise or EYFP (human) (UniProt P29317); test: FRET or BRET
[9] = target: EphA2 intracellular region (residues D590-I976), wild type (human) (UniProt P29317); test: AUC
[10] = target: EphA2 S897A expressed in HEK293 cells (pulldown with Ephexin4) (human) (UniProt P29317); test: pull-down
[11] = target: EphA2 expressed in HEK293 cells (pulldown with Ephexin4) (human) (UniProt P29317); test: pull-down

EphA2 3E mutant (T898E/S899E/S901E), full length, labeled with mTurquoise or EYFP (from UniProt P29317 24-976) (receptor)
binding [1]: binds

EphA2 5A mutant (S892A/S897A/T898A/S899A/S901A), full length, labeled with mTurquoise or EYFP (from UniProt P29317 24-976) (receptor)
binding [2]: binds

EphA2 5E mutant (S892E/S897E/T898E/S899E/S901E), full length, labeled with mTurquoise or EYFP (from UniProt P29317 24-976) (receptor)
binding [3]: binds

EphA2 ASAAA mutant (S892A/T898A/S899A/S901A), full length, labeled with mTurquoise or EYFP (from UniProt P29317 24-976) (receptor)
binding [4]: binds

EphA2 S892A mutant, full length, labeled with mTurquoise or EYFP (from UniProt P29317 24-976) (receptor)
binding [5]: binds

EphA2 S892E mutant, full length, labeled with mTurquoise or EYFP (from UniProt P29317 24-976) (receptor)
binding [6]: binds

EphA2 S897A mutant, full length, labeled with mTurquoise or EYFP (from UniProt P29317 24-976) (receptor)
binding [7]: binds

EphA2 S897E mutant, full length, labeled with mTurquoise or EYFP (from UniProt P29317 24-976) (receptor)
binding [8]: binds

EphA2 intracellular region (residues D590-I976), wild type (from UniProt P29317 590-976) (domain or fragment)
binding [9]: no binding (tested: ~9 μM)

B1: Ephexin4 expressed in HEK293 cells (protein, UniProt Q5VV41 1-709)
chain: MAQRHSDSSLEEKLLGHRFHSELRLDAGGNPASGLPMVRGSPRVRDDAAFQPQVPAPPQPRPPGHEEPWPIVLSTESPAALKLGTQQLIPKSLAVASKAKTPARHQSFGAAVLSREAARRDPKLLPAPSFSLDDMDVDKDPGGMLRRNLRNQSYRAAMKGLGKPGGQGDAIQLSPKLQALAEEPSQPHTRSPAKNKKTLGRKRGHKGSFKDDPQLYQEIQERGLNTSQESDDDILDESSSPEGTQKVDATIVVKSYRPAQVTWSQLPEVVELGILDQLSTEERKRQEAMFEILTSEFSYQHSLSILVEEFLQSKELRATVTQMEHHHLFSNILDVLGASQRFFEDLEQRHKAQVLVEDISDILEEHAEKHFHPYIAYCSNEVYQQRTLQKLISSNAAFREALREIERRPACGGLPMLSFLILPMQRVTRLPLLMDTLCLKTQGHSERYKAASRALKAISKLVRQCNEGAHRMERMEQMYTLHTQLDFSKVKSLPLISASRWLLKRGELFLVEETGLFRKIASRPTCYLFLFNDVLVVTKKKSEESYMVQDYAQMNHIQVEKIEPSELPLPGGGNRSSSVPHPFQVTLLRNSEGRQEQLLLSSDSASDRARWIVALTHSERQWQGLSSKGDLPQVEITKAFFAKQADEVTLQQADVVLVLQQEDGWLYGERLRDGETGWFPEDFARFITSRVAVEGNVRRMERLRVETDV
binding [10]: binds weakly
binding [11]: binds weakly
